Measurements: paper PMC9334269
No constants are given. Whether binding was seen depends on the method and setting. Binding seen in cells or lysates may run through a third protein. These calls come from enrichment with a bait or labelling near it, and not all partners need be listed. For some assays here: A no says only that the protein was not detected with the bait.

Sequences of proteins named here, by UniProt entry; tags and fusion partners are left off.
UniProt Q86WV6: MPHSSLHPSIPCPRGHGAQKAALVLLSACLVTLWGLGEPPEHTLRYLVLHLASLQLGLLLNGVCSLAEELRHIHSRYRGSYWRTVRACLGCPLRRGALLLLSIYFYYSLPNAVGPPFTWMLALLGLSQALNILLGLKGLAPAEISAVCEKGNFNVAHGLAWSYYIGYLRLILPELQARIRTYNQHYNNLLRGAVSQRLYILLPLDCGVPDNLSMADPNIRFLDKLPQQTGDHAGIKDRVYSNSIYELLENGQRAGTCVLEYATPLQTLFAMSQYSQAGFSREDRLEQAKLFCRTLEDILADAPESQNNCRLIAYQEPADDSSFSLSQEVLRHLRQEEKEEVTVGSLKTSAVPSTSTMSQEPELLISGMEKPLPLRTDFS
UniProt Q13772: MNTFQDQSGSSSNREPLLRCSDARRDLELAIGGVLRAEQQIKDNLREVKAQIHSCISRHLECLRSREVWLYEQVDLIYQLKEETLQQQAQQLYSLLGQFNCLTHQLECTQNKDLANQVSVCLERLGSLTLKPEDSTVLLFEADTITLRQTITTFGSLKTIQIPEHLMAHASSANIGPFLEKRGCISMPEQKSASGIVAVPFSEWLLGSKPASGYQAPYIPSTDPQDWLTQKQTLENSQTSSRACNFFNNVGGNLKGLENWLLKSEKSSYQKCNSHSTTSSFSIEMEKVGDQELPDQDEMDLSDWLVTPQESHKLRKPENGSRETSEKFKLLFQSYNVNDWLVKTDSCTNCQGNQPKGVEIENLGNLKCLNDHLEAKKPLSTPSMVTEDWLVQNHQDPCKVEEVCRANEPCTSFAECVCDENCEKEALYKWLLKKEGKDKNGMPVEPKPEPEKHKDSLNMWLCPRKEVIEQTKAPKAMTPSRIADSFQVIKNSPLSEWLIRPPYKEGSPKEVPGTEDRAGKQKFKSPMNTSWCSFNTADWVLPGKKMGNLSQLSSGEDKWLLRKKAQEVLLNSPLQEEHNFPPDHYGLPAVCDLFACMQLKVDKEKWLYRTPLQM

What was measured:
[1] = target: endogenous STING (human PBMCs) (human (endogenous in PBMCs)) (UniProt Q86WV6); assay: co-IP + affinity purification with mass spectrometry; PBMCs from patients with sepsis; IP with anti-STING and anti-NCOA4, immunoblot; anti-STING immunoprecipitates also analysed by LC-MS/MS
[2] = target: endogenous STING (human PBMCs) (human (endogenous in PBMCs)) (UniProt Q86WV6); assay: co-IP + affinity purification with mass spectrometry; PBMCs from healthy subjects; IP with anti-STING and anti-NCOA4, immunoblot; anti-STING immunoprecipitates also analysed by LC-MS/MS

In the case of “endogenous NCOA4 (human PBMCs) (from UniProt Q13772 1-614)”, the binding [1] is reported as “binds” and the binding [2] is reported as “no binding (only PBMCs from healthy subjects)”.
